Percent effect of library compounds

Protein sequences, listed by entry. Tags and fused reporters are not part of them.
UniProt P9WNZ1, whole entry: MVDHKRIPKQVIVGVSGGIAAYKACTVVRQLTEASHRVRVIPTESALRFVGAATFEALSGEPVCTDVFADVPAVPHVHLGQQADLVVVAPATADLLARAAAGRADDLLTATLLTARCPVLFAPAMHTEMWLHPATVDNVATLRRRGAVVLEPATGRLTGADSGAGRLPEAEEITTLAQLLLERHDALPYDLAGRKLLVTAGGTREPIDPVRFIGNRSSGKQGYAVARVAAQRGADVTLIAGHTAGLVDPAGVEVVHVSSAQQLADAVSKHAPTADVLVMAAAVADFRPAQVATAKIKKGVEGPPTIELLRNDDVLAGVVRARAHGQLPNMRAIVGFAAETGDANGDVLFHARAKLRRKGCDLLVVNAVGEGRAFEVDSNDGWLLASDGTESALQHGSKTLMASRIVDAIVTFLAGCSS

Source: ChEMBL document CHEMBL3988442, “University of Dundee, Small-Polar-MMV Screening Library” (2021).

Toxoplasma: 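Assay of Toxoplasma gondii numbers, read through their beta-galactosidase reporter with a colour substrate. Tested at 10 µM. Higher reads as fewer parasites (inferred from which compounds were picked for retests). Size under these conditions: about 67,000 compounds, about 260 of them at 50% or above in at least one test.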
CoaBC: 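Enzyme assay of CoaBC with a phosphate dye (Biomol Green) read at 650 nm. Target: Coenzyme A biosynthesis protein CoaBC, Mycobacterium tuberculosis (UniProt P9WNZ1). Tested at 30 µM. Higher reads as stronger inhibition, judged from the few compounds that gave an IC50. Most strong results did not repeat in a second test. About 67,000 compounds were tested under these conditions; 0.06% (about 40) showed 50% or more at least once.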

Values are the deposited “Percent Effect”, in %.
The record does not define 0% and 100%; most values in the screen are far below 50% and negative numbers occur (in some assays of this library far below -100).
This is an unselected part of the compounds tested.

CN(CCC1CCOCC1)[C@@H]1c2ccccc2C2(CCNCC2)[C@H]1O gave Toxoplasma: 1.235%; CoaBC: -17.05%.
CCOc1cccc(NCc2cnc(N3CCN(C)CC3)nc2)n1 gave Toxoplasma: -18.09%; CoaBC: -24.3%.
[H][C@@]12CCN(C(=O)C3CCSCC3)C[C@]1(COCC1CC1)CCO2 gave Toxoplasma: -5.798%.
O=C(CO)N1CCCC(c2cc(C(F)(F)F)[nH]n2)C1 (centres unmarked) gave CoaBC: 7.363%.
Cc1cccc(CC2CCCN(C(=O)C3CCOCC3)C2)n1 (centres unmarked) gave Toxoplasma: -48.79%; CoaBC: 4.38%.
C[C@@H]1CN(C2(C(=O)N3CCOCC3)Cc3ccccc3C2)C[C@H](C)O1 gave Toxoplasma: -2.443%; CoaBC: -5.907%.
CC(Cn1cc(Br)cn1)C(=O)Nc1ccncc1 (centres unmarked) gave Toxoplasma: 11.49%; CoaBC: -1.722%.
CC1c2ncc(CNC(=O)C3CC3)n2CCN1Cc1nccs1 (centres unmarked) gave CoaBC: -8.755%.
CNC(=O)c1ccc2c(c1O)OC(C)(C)C2 gave Toxoplasma: -1.396%; CoaBC: -4.198%.
CN[C@@H]1CCC[C@@H](Oc2ccccc2Oc2ccc(C)cc2)[C@@H]1O gave Toxoplasma: -0.283%; CoaBC: -2.968%.
CN(C)CCN1CCCC12CCN(Cc1nccn1C)CC2.O=C(O)C(F)(F)F.O=C(O)C(F)(F)F.O=C(O)C(F)(F)F gave Toxoplasma: -5.696%.
COc1ccc(CN2CCOC[C@H]2c2nc(-c3ccncc3)c[nH]2)cc1 gave Toxoplasma: -10.04%; CoaBC: 6.483%.
O=C(N1CCCC1)N1Cc2nccn2CC(Cn2ncccc2=O)C1 (centres unmarked) gave Toxoplasma: -7.964%; CoaBC: 3.329%.
COC(=O)C(CO)NC(=O)c1cn(Cc2ccccc2F)nn1 (centres unmarked) gave Toxoplasma: -3.082%.
Cc1nc(C)c(C(=O)NCCNC(=O)Cc2ccc(F)cc2)s1 gave Toxoplasma: 16.88%; CoaBC: -0.2551%.
c1coc(CN2CC[C@@H]3O[C@@H](COCC4CCOCC4)CC[C@@H]32)c1 gave CoaBC: 9.855%.
Cc1ccc(-c2ncc(C(=O)N3CCN4CCCCC4C3)c(O)n2)cc1 (centres unmarked) gave Toxoplasma: -3.995%; CoaBC: 2.317%.
COc1ccc(N2Cc3n[nH]c(=O)n3C2=O)cc1 gave Toxoplasma: -42.82%; CoaBC: -0.2457%.
Cn1cc(C2CCCN2C(=O)CCCOc2ccc(F)cc2F)cn1 (centres unmarked) gave CoaBC: 0.5141%.
Cc1ccccc1Oc1ncccc1CNS(C)(=O)=O gave Toxoplasma: 6.599%; CoaBC: 9.091%.
Cc1ccc(CN2C[C@@H]3CCCO[C@@H]3[C@H](NS(C)(=O)=O)C2)o1 gave CoaBC: 0.6515%.
CCN1CCCC1CNC(=O)CCc1cccs1 (centres unmarked) gave Toxoplasma: -3.504%; CoaBC: 6.291%.
NCc1cc(NCC(c2ccccn2)N2CCOCC2)ncn1 (centres unmarked) gave Toxoplasma: -12.19%; CoaBC: 14%.

Once more, the final 3:

{"compound": "Cc1ccc(CN2C[C@@H]3CCCO[C@@H]3[C@H](NS(C)(=O)=O)C2)o1", "CoaBC": 0.6515}
{"compound": "CCN1CCCC1CNC(=O)CCc1cccs1", "stereo": "centres unmarked", "Toxoplasma": -3.504, "CoaBC": 6.291}
{"compound": "NCc1cc(NCC(c2ccccn2)N2CCOCC2)ncn1", "stereo": "centres unmarked", "Toxoplasma": -12.19, "CoaBC": 14}